Measurements reported in PubChem BioAssay AID1259254 (NCATS, 2017).

Purpose: 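Gene knock-downs that lead to re-replication, shown by excess G2 DNA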 (primary screen)
Cells: human HCT116 colorectal cancer cells
Knock-down reagent: single siRNA against human genes
Duration: 3 days
Measurement: 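Imaged Hoechst DNA stain sorts each cell into a cycle phase by DNA amount; per plate, G2 fraction set to 0% for non-targeting and 100% for GMNN siRNA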
Direction: G2 robust z-score: higher = more G2 cells, more excess DNA replication
Rule for the call: 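An siRNA counts as active if its G2 robust z-score lies at least 5 MADs above the screen median; here such calls match roughly 38% of GMNN control or more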
The whole screen tested about 59,000 reagents; this is a random part of them. About 1,550 of them (2.6%) count as active. 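G2 share is only a proxy for re-replication; each gene was hit by three separate siRNAs, and active genes were retested.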 A number with no mark means an inactive call. Reagents against one gene are numbered here. Not all columns of the deposit are shown. The record does not give: the amount of reagent.

target gene,reagent,G2 robust z-score
RPE (ribulose-5-phosphate-3-epimerase),1,1.08
RPE (ribulose-5-phosphate-3-epimerase),2,-1.32
RPE (ribulose-5-phosphate-3-epimerase),3,-0.174
SERHL2 (serine hydrolase like 2),1,1.06
SERHL2 (serine hydrolase like 2),2,0.74
SERHL2 (serine hydrolase like 2),3,-0.582
OR2W5,1,3.7
OR2W5,2,-0.234
OR2W5,3,-0.943
CLEC4D (C-type lectin domain family 4 member D),1,-1.18
CLEC4D (C-type lectin domain family 4 member D),2,-0.139
CLEC4D (C-type lectin domain family 4 member D),3,0.0321
CEP43 (centrosomal protein 43),1,-0.118
CEP43 (centrosomal protein 43),2,-0.682
CEP43 (centrosomal protein 43),3,-0.788
CC2D1A (coiled-coil and C2 domain containing 1A),1,-0.572
CC2D1A (coiled-coil and C2 domain containing 1A),2,0.604
CC2D1A (coiled-coil and C2 domain containing 1A),3,-0.641
MTUS2-AS1 (MTUS2 antisense RNA 1),1,-1.03
MTUS2-AS1 (MTUS2 antisense RNA 1),2,2.54
MTUS2-AS1 (MTUS2 antisense RNA 1),3,0.968
CACNA1A (calcium voltage-gated channel subunit alpha1 A),1,-0.847
CACNA1A (calcium voltage-gated channel subunit alpha1 A),2,-0.26
CACNA1A (calcium voltage-gated channel subunit alpha1 A),3,0.969
CCDC3 (coiled-coil domain containing 3),1,-1.13
CCDC3 (coiled-coil domain containing 3),2,-0.531
CCDC3 (coiled-coil domain containing 3),3,0.32
CSRNP2 (cysteine and serine rich nuclear protein 2),1,0.0193
CSRNP2 (cysteine and serine rich nuclear protein 2),2,-0.19
CSRNP2 (cysteine and serine rich nuclear protein 2),3,-0.53
TOR1A (torsin family 1 member A),1,1.84
TOR1A (torsin family 1 member A),2,-0.848
TOR1A (torsin family 1 member A),3,-1.21
ZMYND19 (zinc finger MYND-type containing 19),1,-0.186
ZMYND19 (zinc finger MYND-type containing 19),2,-0.29
ZMYND19 (zinc finger MYND-type containing 19),3,0.484
TNFRSF21 (TNF receptor superfamily member 21),1,-0.247
TNFRSF21 (TNF receptor superfamily member 21),2,-0.439
TNFRSF21 (TNF receptor superfamily member 21),3,0.122
GFRA3 (GDNF family receptor alpha 3),1,-0.951
GFRA3 (GDNF family receptor alpha 3),2,17 (active)
GFRA3 (GDNF family receptor alpha 3),3,1.96
ZNF692 (zinc finger protein 692),1,1.18
ZNF692 (zinc finger protein 692),2,-0.991
ZNF692 (zinc finger protein 692),3,-0.0641
AARD (alanine and arginine rich domain containing protein),1,-0.936
AARD (alanine and arginine rich domain containing protein),2,1.06
AARD (alanine and arginine rich domain containing protein),3,3.89
KIF2B (kinesin family member 2B),1,-1.24
KIF2B (kinesin family member 2B),2,2.88
KIF2B (kinesin family member 2B),3,-1.22

Records listed so far whose gene name begins with M or m (3):
target gene,reagent,G2 robust z-score
MTUS2-AS1 (MTUS2 antisense RNA 1),1,-1.03
MTUS2-AS1 (MTUS2 antisense RNA 1),2,2.54
MTUS2-AS1 (MTUS2 antisense RNA 1),3,0.968

Continued:
target gene,reagent,G2 robust z-score
ZNF282 (zinc finger protein 282),1,-1.07
ZNF282 (zinc finger protein 282),2,-0.916
ZNF282 (zinc finger protein 282),3,1.68
ITPRID2 (ITPR interacting domain containing 2),1,0.912
ITPRID2 (ITPR interacting domain containing 2),2,-0.045
ITPRID2 (ITPR interacting domain containing 2),3,-0.769
CSF3 (colony stimulating factor 3),1,-0.599
CSF3 (colony stimulating factor 3),2,0.641
CSF3 (colony stimulating factor 3),3,-0.927
GABRA1 (gamma-aminobutyric acid type A receptor subunit alpha1),1,0.21
GABRA1 (gamma-aminobutyric acid type A receptor subunit alpha1),2,-0.352
GABRA1 (gamma-aminobutyric acid type A receptor subunit alpha1),3,1.91
MYH7B (myosin heavy chain 7B),1,-0.301
MYH7B (myosin heavy chain 7B),2,-1.22
MYH7B (myosin heavy chain 7B),3,-1.04
ACTG1P20 (actin gamma 1 pseudogene 20),1,4.01
ACTG1P20 (actin gamma 1 pseudogene 20),2,-0.149
ACTG1P20 (actin gamma 1 pseudogene 20),3,-0.262
CDNF (cerebral dopamine neurotrophic factor),1,-0.0627
CDNF (cerebral dopamine neurotrophic factor),2,-0.219
CDNF (cerebral dopamine neurotrophic factor),3,-0.654
FOXJ3 (forkhead box J3),1,2.91
FOXJ3 (forkhead box J3),2,0.29
FOXJ3 (forkhead box J3),3,-1.26
PUF60 (poly(U) binding splicing factor 60),1,-0.374
PUF60 (poly(U) binding splicing factor 60),2,-0.279
PUF60 (poly(U) binding splicing factor 60),3,0.78
OR2AT4 (olfactory receptor family 2 subfamily AT member 4),1,-0.00482
OR2AT4 (olfactory receptor family 2 subfamily AT member 4),2,0.126
OR2AT4 (olfactory receptor family 2 subfamily AT member 4),3,-0.424
LDAF1 (lipid droplet assembly factor 1),1,3.43
LDAF1 (lipid droplet assembly factor 1),2,-0.51
LDAF1 (lipid droplet assembly factor 1),3,-0.577
MAGEB6B (MAGE family member B6B),1,0.0917
MAGEB6B (MAGE family member B6B),2,2.07
MAGEB6B (MAGE family member B6B),3,-0.563
